Results are given in words; binding and its absence hold for the method and conditions named. Binding seen in cells or lysates may run through a third protein. Some entries that bind do so weakly or less than the wild type.

The chains behind the UniProt entries cited, without tags or fusion partners.
UniProt P35637: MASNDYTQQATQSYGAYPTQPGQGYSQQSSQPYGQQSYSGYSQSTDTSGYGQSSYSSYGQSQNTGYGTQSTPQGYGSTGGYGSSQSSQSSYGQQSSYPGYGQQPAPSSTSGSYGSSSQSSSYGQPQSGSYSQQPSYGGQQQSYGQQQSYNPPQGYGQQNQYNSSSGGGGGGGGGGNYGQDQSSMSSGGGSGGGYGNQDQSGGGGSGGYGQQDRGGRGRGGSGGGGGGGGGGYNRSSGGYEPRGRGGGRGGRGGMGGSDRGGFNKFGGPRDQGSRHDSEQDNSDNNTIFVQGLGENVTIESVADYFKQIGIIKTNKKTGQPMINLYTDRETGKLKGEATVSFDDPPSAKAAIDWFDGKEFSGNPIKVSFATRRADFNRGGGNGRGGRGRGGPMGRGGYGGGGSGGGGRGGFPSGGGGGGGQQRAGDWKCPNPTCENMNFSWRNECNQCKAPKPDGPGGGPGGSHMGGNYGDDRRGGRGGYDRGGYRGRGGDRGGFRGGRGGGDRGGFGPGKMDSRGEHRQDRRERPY

For this assay, the target named is fused in sarcoma (FUS) (human (endogenous in MDA-MB-231 and MDA-MB-468)) (UniProt P35637). The experiment in a line: co-IP; lysates (20 mM Tris pH 7.5, 150 mM NaCl, 1% Triton X-100, 1 mM PMSF) of MDA231 and MDA468 cells in hypoxic conditions; primary antibody 2 h, protein A/G beads overnight at 4 °C, Western blot; for FUS and LAMP1: MDA468 cells with circTBC1D14 overexpression or knockdown, pretreated with ….

As for P62 (from UniProt Q13501 1-440), the binding entry is “binds”.

For the origin of these results see PMC10074116.
